{"source": "the supplement of paper PMC8256030", "note": "Values joined by “and” are separate entries in the source; they are usually repeats but may differ in a detail not shown here. Identical values can stand only once. Counter-ions that a name gives are not always drawn. The list shows a part of the results. This data set is noisy: repeats of one test often differ as much as different tests do.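 HEK293T cells were given each compound shortly before transfection with a reporter in which red mCherry is followed by the SARS-CoV-2 frameshift element and then GFP in the −1 frame, so GFP appears only after frameshifting.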", "data": [{"test_system": "HEK293T", "experiment": "percent viability (nuclei count) relative to control; higher = more viable cells", "conditions": "10 µM; 24 h", "values": [{"compound": "N[C@@H](COP(=O)(O)O)C(=O)O", "note": "[dexfosfoserine]", "percent viability": "196%"}, {"compound": "CCC1=C[C@@H]2CN(C1)Cc1c([nH]c3ccccc13)[C@@](C(=O)OC)(c1cc3c(cc1OC)N(C)[C@H]1[C@@](O)(C(=O)OC)[C@H](OC(C)=O)[C@]4(CC)C=CCN5CC[C@]31[C@@H]54)C2", "note": "[vinorelbine]", "percent viability": "19.5%"}, {"compound": "N=C(N)c1ccc(N=NNc2ccc(C(=N)N)cc2)cc1", "percent viability": "356%"}, {"compound": "CC(C)(C)C(=O)NCCCC(=O)O", "note": "[pivagabine]", "percent viability": "230%"}, {"compound": "CC(=O)N=c1sc(S(N)(=O)=O)nn1C", "percent viability": "321%"}, {"compound": "CC(=O)OCC1=C(C(=O)O)N2C(=O)[C@@H](NC(=O)Cc3cccs3)[C@H]2SC1", "percent viability": "287%"}, {"compound": "CO/N=C(\\C(=O)N[C@@H]1C(=O)N2C(C(=O)O)=CCS[C@H]12)c1csc(N)n1", "note": "[Cefizox]", "percent viability": "195%"}, {"compound": "C[C@@H]1[C@H](O)[C@@H](C)/C=C/C=C/C=C/C=C/C=C/C=C/C=C/[C@H](O[C@@H]2O[C@H](C)[C@@H](O)[C@H](N)[C@@H]2O)C[C@@H]2O[C@](O)(C[C@@H](O)C[C@@H](O)[C@H](O)CC[C@@H](O)C[C@@H](O)CC(=O)O[C@H]1C)C[C@H](O)[C@H]2C(=O)O", "percent viability": "234%"}, {"compound": "Nc1ccc(S(=O)(=O)[O-])cc1.Nc1ccc(S(=O)(=O)[O-])cc1.O.O.O.O.[Zn+2]", "percent viability": "181%"}, {"compound": "CN(C)C/C=C(/c1ccc(Br)cc1)c1cccnc1", "note": "[zimeldine]", "percent viability": "132%"}, {"compound": "CC[C@H]1OC(=O)[C@H](C)[C@@H](O[C@H]2C[C@@](C)(OC)[C@@H](O)[C@H](C)O2)[C@H](C)[C@@H](O[C@@H]2O[C@H](C)C[C@H](N(C)C)[C@H]2O)[C@](C)(O)C[C@@H](C)/C(=N\\OCOCCOC)[C@H](C)[C@@H](O)[C@]1(C)O", "percent viability": "346%"}, {"compound": "CCN1CCCC1CNC(=O)c1cc(S(=O)(=O)CC)c(N)cc1OC", "note": "(configuration not stated) [amisulpride]", "percent viability": "306% and 161%"}, {"compound": "Nc1nc2ccc(OC(F)(F)F)cc2s1", "note": "[Riluzole·HCl]", "percent viability": "369%"}, {"compound": "Nc1nc2c(ncn2COCCO)c(=O)[nH]1", "note": "[aciclovir]", "percent viability": "255%"}, {"compound": "NS(=O)(=O)c1ccc(-n2nc(C(F)(F)F)cc2-c2ccc(F)cc2)cc1", "note": "[mavacoxib]", "percent viability": "435%"}, {"compound": "Cc1cc(NC(=O)C2=C(O)c3ccccc3S(=O)(=O)N2C)no1", "percent viability": "224%"}, {"compound": "NC(=O)N/N=C/c1ccc([N+](=O)[O-])o1", "percent viability": "98.5%"}, {"compound": "CC(=O)OCC(CCn1cnc2cnc(N)nc21)COC(C)=O", "note": "[famciclovir]", "percent viability": "357% and 217%"}, {"compound": "COCC1=C(C(=O)OC(C)OC(=O)OC(C)C)N2C(=O)[C@@H](NC(=O)/C(=N\\OC)c3csc(N)n3)[C@H]2SC1", "note": "(some centres not stated)", "percent viability": "370%"}, {"compound": "CCOC(=O)[C@H](CCc1ccccc1)N[C@@H](C)C(=O)N(CC(=O)O)C1Cc2ccccc2C1", "note": "[delapril]", "percent viability": "79.1%"}, {"compound": "O=C(c1ccccc1)c1ccc2n1CCC2C(=O)O", "note": "(configuration not stated)", "percent viability": "276%"}, {"compound": "C[C@@H]1C/C=C/C=C/C=C/C=C/[C@H](O[C@@H]2O[C@H](C)[C@@H](O)[C@H](N)[C@@H]2O)C[C@@H]2O[C@](O)(C[C@@H](O)C[C@H]3O[C@@H]3/C=C/C(=O)O1)C[C@H](O)[C@H]2C(=O)O", "note": "[Natamycin]", "percent viability": "65.4%"}, {"compound": "CN1CC(=O)N=C1N", "percent viability": "306%"}, {"compound": "CC[N+]([O-])(CC)CCOc1ccc(/C(=C(/Cl)c2ccccc2)c2ccccc2)cc1", "note": "[clomifenoxide]", "percent viability": "87.8%"}, {"compound": "CN1CCN(CCCN2c3ccccc3Sc3ccc(Cl)cc32)CC1", "percent viability": "160%"}, {"compound": "O=c1ccc2ccccc2o1", "percent viability": "413%"}, {"compound": "Cc1onc(-c2c(Cl)cccc2Cl)c1C(=O)N[C@@H]1C(=O)N2[C@@H]1SC(C)(C)[C@@H]2C(=O)O", "percent viability": "150%"}, {"compound": "CO/N=C1\\C[C@]2(C[C@@H]3C[C@@H](C/C=C(\\C)C[C@@H](C)/C=C/C=C4\\CO[C@@H]5[C@H](O)C(C)=C[C@@H](C(=O)O3)[C@]45O)O2)O[C@H](/C(C)=C/C(C)C)[C@H]1C", "percent viability": "114%"}, {"compound": "N=C(N)NC(=N)N1CCOCC1", "note": "[moroxydine]", "percent viability": "137%"}, {"compound": "CC(C)OC(=O)CCC/C=C\\C[C@@H]1[C@@H](/C=C/C(F)(F)COc2ccccc2)[C@H](O)C[C@@H]1O", "note": "[Tafluprost]", "percent viability": "229%"}, {"compound": "C#C[C@]1(OC(C)=O)CC[C@H]2[C@@H]3CCC4=C[C@@H](OC(C)=O)CC[C@@H]4[C@H]3CC[C@@]21C", "note": "[Etynodiol]", "percent viability": "60.9%"}, {"compound": "CC(=O)[C@@]1(O)CC[C@H]2[C@@H]3C=C(Cl)C4=CC(=O)[C@@H]5C[C@@H]5[C@]4(C)[C@H]3CC[C@@]21C", "note": "[cyproterone]", "percent viability": "153%"}]}]}
